For this experiment, the target named is T1, human TREM2 (Triggering Receptor Expressed on Myeloid cells-2), wild-type (human) (UniProt Q9NZC2).
T1 sequence (looked up): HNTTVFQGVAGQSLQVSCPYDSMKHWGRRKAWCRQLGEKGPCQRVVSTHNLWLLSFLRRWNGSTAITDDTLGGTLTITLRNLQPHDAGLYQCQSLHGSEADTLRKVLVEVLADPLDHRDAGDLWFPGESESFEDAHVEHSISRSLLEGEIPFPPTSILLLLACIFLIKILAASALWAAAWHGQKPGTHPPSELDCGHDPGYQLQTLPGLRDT
The experiment is described as follows: hybridoma supernatant screen: peptide ELISA and detection of TREM2 on the cell surface. On the technique in general: ELISA stands for enzyme-linked immunosorbent assay.

No constants are given. Whether binding was seen depends on the method and setting. Some entries that bind do so weakly or less than the wild type.

B1: antibody clone 13F4 (antibody, V domains shown)
VH: EVHLVESGGGLVQPGRSLKLSCAASRFTFSNYGMAWVRQAPTKGLEWVASISNSGGRTFYRDSVKARFTISRDSAESTLYLQMDSLRSEDTATYYCTTIGGGSTFDYWGQGVMVTVSS
VL: DVVMTQTPPSLSVAIGQSVSISCKSSQSLVYSDGKTYLHWLLQSPGRSPKRLIYQVSNLGSGVPDRFSGTGSQKDFTLKISRVEAEDLGVYYCAQTTHFPPTFGSGTKLEIK
On to B1, for which the binding result was “binds”.

B2: antibody clone 14B3 (antibody, V domains shown)
VH: EVQLVESGGGLVQPGRSLKLSCAASGFSFSNYGMAWVRQAPTKGLEWVASISNNGGRTFYRDSVKGRFTISRDNAKSTLYLQMHSLRSEDTATYYCTTIGGGSTFDYWGQGVMVTVSS
VL: DVVMTQTPPSLSVAIGQSVSMSCKSSQSLVYSDGKTYLHWLLQSPGGSPKRLIYQVSNLGSGVPDRFSGTGSQKDFTLKISRVEAEDLGVYYCAQTTHFPPTFGSGTKLEIK
For the molecule B2, the binding entry was “binds”.
